Assay results taken from publication PMC5566117.
No constants are given. Whether binding was seen depends on the method and setting. In cells and extracts the contact can be indirect. Some results given as binding are weak or reduced against the parent protein; the word gives no strength. Tags and fused reporters may be left off the sequences shown.

Legend:
[1] = target: T1, FLAG-tagged Pld6 (MitoPLD, phospholipase D family member 6) (mouse) (UniProt Q5SWZ9); test: pull-down; GST pull-down (Supplementary Figure S5A-C); constructs, bait and conditions not shown
T1 sequence: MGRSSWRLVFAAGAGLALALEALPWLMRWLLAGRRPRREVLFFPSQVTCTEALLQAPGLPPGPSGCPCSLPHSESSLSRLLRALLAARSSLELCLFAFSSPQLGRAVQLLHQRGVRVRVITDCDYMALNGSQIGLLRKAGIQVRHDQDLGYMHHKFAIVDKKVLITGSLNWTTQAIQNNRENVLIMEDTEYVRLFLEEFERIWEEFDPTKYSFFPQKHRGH

[2] = target: T1, FLAG-tagged Pld6 (MitoPLD, phospholipase D family member 6) (mouse); test: co-IP; HEK293T cells co-expressing FLAG-Pld6 with GST-tagged Gyk, Gykl1 or Gk2; lysis in IP buffer (50 mM Tris-HCl pH 8.0, 100 mM NaCl, 1 mM EDTA, 0.5% NP-40, 10% glycerol); anti-FLAG M2 affinity gel, 4 °C, 60 min; blotted with anti-GST and anti-FLAG

B1: GST-tagged Gk2 (glycerol kinase 2) (protein, UniProt Q9WU65 1-554)
chain: MAASKQTSAGPLVGAVVQGTNSTRFLVFNSKTAELVCSHQVELTQEYPKEGWVEQDPKEILKSVYECIAKACEKLAEVNIDISNIKAIGVSNQRETTVVWDKFTGDPLYNAVVWLDLRTQSTVETLTKKIPGNSNFVKSKTGLPLSTYFSAVKLRWMLDNLRPIQKAVEEGRAMFGTIDSWLIWCMTGGVNGGIHCTDVTNACRTMLFNIHSLEWDKDLCDFFEIPMSILPNVCSSSEIYGLMTSGALEGVPISGCLGDQSAALVGQMCFHEGQAKNTYGTGCFLLCNTGQKCVFSEHGLLTTLAYKLGKNKPVFYALEGSVAIAGAVIRWLRDNFEIITTSGEVENLAREVGTSYGCYFVPAFSGLYAPYWEPSARGIICGLTQFTNKCHIAFAALEAVCFQTREILDAMNRDCGIPLSHLQVDGGMTNNRILMQLQADILHIPVVKSVMPETTALGAAMAAGAAEGVNVWSLEPEDLSTILMERYEPQIQATESEIRFSTWKRAVMKSMGWVTAKDPENGDNPVFSCLPLGFFIVSSMTLLIGARCVSTAEE
- binding [1]: binds
- binding [2]: binds
